The target in this assay is Pde6δ-Strep-HA (retinal rod rhodopsin-sensitive cGMP 3',5'-cyclic phosphodiesterase subunit delta) (human) (UniProt O43924). Put plainly: affinity purification with mass spectrometry; Pde6δ-Strep-HA stably expressed in HEK293 pulled down from protein extracts on Strep-Tactin Sepharose beads; label-free quantitative MS (LTQ Orbitrap XL); control HEK293 cells without bait; vehicle (DMSO) treated cells, also REM treated cells; co-precipitation threshold of 2 (Pde6δ vehicle/control); three biological replicates.

No constants are given. Whether binding was seen depends on the method and setting. Binding seen in cells or lysates may run through a third protein. A yes stands for co-enrichment or nearness to the bait. Other partners may have been found.

B1: RPGR (protein, UniProt Q92834 1-1020)
chain: MREPEELMPDSGAVFTFGKSKFAENNPGKFWFKNDVPVHLSCGDEHSAVVTGNNKLYMFGSNNWGQLGLGSKSAISKPTCVKALKPEKVKLAACGRNHTLVSTEGGNVYATGGNNEGQLGLGDTEERNTFHVISFFTSEHKIKQLSAGSNTSAALTEDGRLFMWGDNSEGQIGLKNVSNVCVPQQVTIGKPVSWISCGYYHSAFVTTDGELYVFGEPENGKLGLPNQLLGNHRTPQLVSEIPEKVIQVACGGEHTVVLTENAVYTFGLGQFGQLGLGTFLFETSEPKVIENIRDQTISYISCGENHTALITDIGLMYTFGDGRHGKLGLGLENFTNHFIPTLCSNFLRFIVKLVACGGCHMVVFAAPHRGVAKEIEFDEINDTCLSVATFLPYSSLTSGNVLQRTLSARMRRRERERSPDSFSMRRTLPPIEGTLGLSACFLPNSVFPRCSERNLQESVLSEQDLMQPEEPDYLLDEMTKEAEIDNSSTVESLGETTDILNMTHIMSLNSNEKSLKLSPVQKQKKQQTIGELTQDTALTENDDSDEYEEMSEMKEGKACKQHVSQGIFMTQPATTIEAFSDEEVGNDTGQVGPQADTDGEGLQKEVYRHENNNGVDQLDAKEIEKESDGGHSQKESEAEEIDSEKETKLAEIAGMKDLREREKSTKKMSPFFGNLPDRGMNTESEENKDFVKKRESCKQDVIFDSERESVEKPDSYMEGASESQQGIADGFQQPEAIEFSSGEKEDDEVETDQNIRYGRKLIEQGNEKETKPIISKSMAKYDFKCDRLSEIPEEKEGAEDSKGNGIEEQEVEANEENVKVHGGRKEKTEILSDDLTDKAEDHEFSKTEELKLEDVDEEINAENVESKKKTVGDDESVPTGYHSKTEGAERTNDDSSAETIEKKEKANLEERAICEYNENPKGYMLDDADSSSLEILENSETTPSKDMKKTKKIFLFKRVPSINQKIVKNNNEPLPEIKSIGDQIILKSDNKDADQNHMSQNHQNIPPTNTERRSKSCTIL
On to B1, for which the binding result was “binds”.

B2: Lamin B2 (protein, UniProt Q03252 1-620)
chain: MSPPSPGRRREQRRPRAAATMATPLPGRAGGPATPLSPTRLSRLQEKEELRELNDRLAHYIDRVRALELENDRLLLKISEKEEVTTREVSGIKALYESELADARRVLDETARERARLQIEIGKLRAELDEVNKSAKKREGELTVAQGRVKDLESLFHRSEVELAAALSDKRGLESDVAELRAQLAKAEDGHAVAKKQLEKETLMRVDLENRCQSLQEELDFRKSVFEEEVRETRRRHERRLVEVDSSRQQEYDFKMAQALEELRSQHDEQVRLYKLELEQTYQAKLDSAKLSSDQNDKAASAAREELKEARMRLESLSYQLSGLQKQASAAEDRIRELEEAMAGERDKFRKMLDAKEQEMTEMRDVMQQQLAEYQELLDVKLALDMEINAYRKLLEGEEERLKLSPSPSSRVTVSRATSSSSGSLSATGRLGRSKRKRLEVEEPLGSGPSVLGTGTGGSGGFHLAQQASASGSVSIEEIDLEGKFVQLKNNSDKDQSLGNWRIKRQVLEGEEIAYKFTPKYILRAGQMVTVWAAGAGVAHSPPSTLVWKGQSSWGTGESFRTVLVNADGEEVAMRTVKKSSVMRENENGEEEEEEAEFGEEDLFHQQGDPRTTSRGCYVM
For B2, the binding entry is reported as “binds”.

B3: Fbxo10 (protein, UniProt Q9UK96 1-956)
chain: MEAGGLPLELWRMILAYLHLPDLGRCSLVCRAWYELILSLDSTRWRQLCLGCTECRHPNWPNQPDVEPESWREAFKQHYLASKTWTKNALDLESSICFSLFRRRRERRTLSVGPGREFDSLGSALAMASLYDRIVLFPGVYEEQGEIILKVPVEIVGQGKLGEVALLASIDQHCSTTRLCNLVFTPAWFSPIMYKTTSGHVQFDNCNFENGHIQVHGPGTCQVKFCTFKNTHIFLHNVPLCVLENCEFVGSENNSVTVEGHPSADKNWAYKYLLGLIKSSPTFLPTEDSDFLMSLDLESRDQAWSPKTCDIVIEGSQSPTSPASSSPKPGSKAGSQEAEVGSDGERVAQTPDSSDGGLSPSGEDEDEDQLMYRLSYQVQGPRPVLGGSFLGPPLPGASIQLPSCLVLNSLQQELQKDKEAMALANSVQGCLIRKCLFRDGKGGVFVCSHGRAKMEGNIFRNLTYAVRCIHNSKIIMLRNDIYRCRASGIFLRLEGGGLIAGNNIYHNAEAGVDIRKKSNPLILCNQIHHGLRSGIVVLGNGKGIIRNNQIFSNKEAGIYILYHGNPVVSGNHIFKGRAAGIAVNENGKGLITENVIRENQWGGVDIRRGGIPVLRSNLICFGYSDGVVVGDEGKGLIEGNTIYANKGCGVWMMSSSLPHVTSNHVSYNGLYGVAVFSQKDGSSELPRGHRAQENFSEDGDAILWETELEKEDDPLRRPITIALVESNSINHNGASGLYVQSSEALHVITNVIHANGDRGITVAQSSQPTRVANNSISCNRQSGVKVEAQCKVELRGNGIYDNRGHGIITKGDSTIVIENDIIGNRGSGLQLLPRSDTKVIKNRIHSFRAYGIAVRGRAKALVQENIIFQGKTSKTIFQQISNNRECIMQNNKFLVFKKKSDTWRLVNPPARPHLENSLRRPSAAHNGQKVTAMATRITARVEGGYHSNRSVFCTIL
B3: the binding result is recorded as “binds”.

Source of the values: article PMC6158915.
